# Results: the supplement of paper PMC3334620
# Whole data set: some 33,000 sequences, median “E-score (-0.5 to 0.5)” near -0.0014, cut for the highest 2% near 0.25. The list shows a part of the results.
# Target: T1, Cad1 (UniProt P24813)
# T1 sequence: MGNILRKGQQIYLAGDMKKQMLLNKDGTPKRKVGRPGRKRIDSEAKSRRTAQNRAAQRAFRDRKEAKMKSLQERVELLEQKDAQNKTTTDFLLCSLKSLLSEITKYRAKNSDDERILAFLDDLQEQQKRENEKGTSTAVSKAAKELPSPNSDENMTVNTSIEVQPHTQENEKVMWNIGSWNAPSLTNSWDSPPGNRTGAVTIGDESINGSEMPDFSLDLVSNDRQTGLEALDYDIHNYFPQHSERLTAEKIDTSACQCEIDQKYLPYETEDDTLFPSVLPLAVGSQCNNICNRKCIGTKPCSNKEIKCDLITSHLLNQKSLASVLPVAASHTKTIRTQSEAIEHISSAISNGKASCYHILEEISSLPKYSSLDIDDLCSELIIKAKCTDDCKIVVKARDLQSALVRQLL
# Test: PBM E-score (8-mer binding enrichment) (E-score (-0.5 to 0.5)); higher = stronger / more preferred TF binding
# Details: protein concentration: 100 nM; construct: GST-full length
# Procedure, shortened: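 Full-length yeast transcription factors or their DNA-binding domains, GST-tagged and expressed with PURExpress, were applied at about 100-200 nM to universal all-10-mer Agilent arrays. These arrays had been made double-stranded by primer extension on fresh or once-stripped slides. Detection used fluorescent anti-GST, normalisation used masliner, and E-scores for ungapped eight-base words pooled with reverse complements came from the Universal PBM Analysis Suite.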
row,Sequence,PBM E-score
1,ATCCGGTC,0.00942
2,CAGGATCC,-0.00453
3,AATTTCCT,0.171
4,AGACTATA,0.127
5,AGTAAACC,-0.0417
6,CGACGTCA,0.138
7,CAATTAAA,0.143
8,CACGGACG,0.115
9,CGCTTGCC,-0.166
10,TTAGAGAA,-0.283
11,ATGCCTCC,-0.072
12,CCCTCAGA,-0.181
13,GGGAGGAC,-0.131
14,CGGACACA,0.00739
15,ACCGAAGT,0.018
16,AATAGTCC,-0.111
17,GAACCCCC,-0.39
18,CTGTCACC,-0.17
19,CATGTCAG,0.014
20,CTTTAAAG,-0.119
21,GCTTGGCC,-0.103
22,CTAGAATC,0.00014
23,TCAGCCCA,-0.0475
24,CATCACTC,-0.133

# Six entries from above, bar-delimited:
row | Sequence | PBM E-score
1 | ATCCGGTC | 0.00942
3 | AATTTCCT | 0.171
14 | CGGACACA | 0.00739
19 | CATGTCAG | 0.014
20 | CTTTAAAG | -0.119
24 | CATCACTC | -0.133

# Later entries:

row,Sequence,PBM E-score
1,GATCAAAC,0.048
2,AGTGAGCC,-0.0314
3,AGTTGACG,0.0895
4,GAAGCCTA,-0.0534
5,ACACGAAC,0.144
6,CGTTTCAC,0.0896
7,CACTAACA,0.0686
8,ATCGTCAT,0.12
9,CGGGGCAA,-0.0608
10,CCCGTACG,-0.119
11,CCTGCCTC,-0.181
12,ACGACTGG,-0.109
13,CCTTCAAC,-0.0081
14,AAACTAAC,0.0901
15,ATTAGTCC,0.153
16,AAGACACC,-0.109
17,AGACAACA,0.0247
18,TCTCTCAA,0.177
19,ACAAATAT,0.262
20,GGAGCGTA,0.0102
21,ACTCGTTA,-0.0384
22,AGGTTTGA,-0.116
23,AAGAGGAA,0.0448
24,ACATATTA,0.317

row,Sequence,PBM E-score
1,CTGGTAAG,0.0865
2,TCAGCGCA,0.0125
3,GATGCGCA,0.153
4,GGCGGTAC,-0.0694
5,ATGTGTGG,0.0124
6,CGAATTCC,0.111
7,AGTCCCAC,-0.0814
8,AAAGCTTA,0.201
9,GAGCATAC,-0.0838
10,ACAACCAA,0.115
11,CGAAATAA,0.214
12,GCAACAAC,0.12
13,TCACTTCA,-0.0607
14,ATGCAATA,0.0766
15,AATAAAAT,0.166
16,ATCTCCAC,-0.0913
17,GCCTGGCA,-0.171
18,GGTGTAGA,-0.0326
19,AGCACCGG,-0.123
20,AGCATCCT,-0.152
21,AGACATCT,-0.136
22,GATTCCCA,-0.0478
23,AAGCGTTC,-0.0171
24,GGAAGTAC,-0.0293

row,Sequence,PBM E-score
1,CTATCCTC,-0.17
2,ATATCGGC,0.0995
3,TACCAGTA,0.0117
4,GTCCCGAC,-0.0157
5,ACCGACGA,-0.152
6,GTGCTGAA,0.0959
7,GGGTGGAA,-0.16
8,GGTCGTAC,-0.102
9,GAAGACTC,0.00854
10,TATTAAAA,0.194
11,CATTAGGA,0.0351
12,CCCTTCCG,-0.262
13,ATATATCC,0.297
14,AGGTAGAT,-0.069
15,ACCGCGGT,0.236
16,ATTACAGC,-0.121
17,AACGCGAT,0.0132
18,ATTAGAAT,0.21
19,CGCCAGAG,-0.0973
20,CTGCAAAA,0.00476
21,ACGCATTG,-0.0523
22,GATCGTAA,-0.052
